Experimental data: the supplement of paper PMC8728848
The list shows a part of the results.

How the values were obtained:
Assay in all cases: glycan array binding signal (z-score within array); higher = stronger binding
Settings in all cases: glycan notation: IUPAC condensed, linker removed
[1] = target: Gal(b1-4)GlcNAc(b1-6)Gal(b1-4)GlcNAc(b1-6)GalNAc
Method in brief: (§1)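 From the Consortium for Functional Glycomics database, 3228 arrays were curated, keeping only those whose protein sequence was available. Binding is given as a within-array Z-score averaged across arrays sharing a protein sequence and across linkers. Negative Z-scores can be read as non-binding.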

[2] = target: Gal(b1-4)GlcNAc(b1-6)GalNAc
Method in brief: as §1

[3] = target: Gal(b1-4)GlcNAc(b1-6)[Gal(b1-3)]GalNAc
Method in brief: as §1

Gal3S(b1-3)GalNAc = target: Gal3S(b1-3)GalNAc
Method in brief: as §1

Gal3S(b1-3)GlcNAc = target: Gal3S(b1-3)GlcNAc
Method in brief: as §1

[4] = target: Gal3S(b1-3)[Fuc(a1-4)]GlcNAc
Method in brief: as §1

Gal3S(b1-4)Glc = target: Gal3S(b1-4)Glc
Method in brief: as §1

Gal3S(b1-4)Glc6S = target: Gal3S(b1-4)Glc6S
Method in brief: as §1

Gal3S(b1-4)GlcNAc = target: Gal3S(b1-4)GlcNAc
Method in brief: as §1

Gal3S(b1-4)GlcNAc6S = target: Gal3S(b1-4)GlcNAc6S
Method in brief: as §1

[5] = target: Gal3S(b1-4)[Fuc(a1-3)]Glc
Method in brief: as §1

Gal3S6S(b1-4)GlcNAc = target: Gal3S6S(b1-4)GlcNAc
Method in brief: as §1

Gal3S6S(b1-4)GlcNAc6S = target: Gal3S6S(b1-4)GlcNAc6S
Method in brief: as §1

Gal4S(b1-4)GlcNAc = target: Gal4S(b1-4)GlcNAc
Method in brief: as §1

Gal4S6S(b1-4)GlcNAc = target: Gal4S6S(b1-4)GlcNAc
Method in brief: as §1

Gal6S(b1-4)Glc = target: Gal6S(b1-4)Glc
Method in brief: as §1

Gal6S(b1-4)Glc6S = target: Gal6S(b1-4)Glc6S
Method in brief: as §1

Gal6S(b1-4)GlcNAc = target: Gal6S(b1-4)GlcNAc
Method in brief: as §1

GalNAc(a1-3)Gal = target: GalNAc(a1-3)Gal
Method in brief: as §1

GalNAc(a1-3)GalNAc = target: GalNAc(a1-3)GalNAc
Method in brief: as §1

[6] = target: GalNAc(b1-3)Gal(a1-4)Gal(b1-4)GlcNAc
Method in brief: as §1

GalNAc(b1-3)GalNAc = target: GalNAc(b1-3)GalNAc
Method in brief: as §1

GalNAc(b1-4)GlcNAc = target: GalNAc(b1-4)GlcNAc
Method in brief: as §1

Glc(a1-4)Glc = target: Glc(a1-4)Glc
Method in brief: as §1

Glc(a1-6)Glc(a1-6)Glc = target: Glc(a1-6)Glc(a1-6)Glc
Method in brief: as §1

Glc(b1-4)Glc = target: Glc(b1-4)Glc
Method in brief: as §1

Glc(b1-6)Glc = target: Glc(b1-6)Glc
Method in brief: as §1

GlcA(b1-3)Gal = target: GlcA(b1-3)Gal
Method in brief: as §1

GlcA(b1-6)Gal = target: GlcA(b1-6)Gal
Method in brief: as §1

[7] = target: GlcNAc(a1-3)Gal(b1-4)GlcNAc
Method in brief: as §1

[8] = target: GlcNAc(a1-6)Gal(b1-4)GlcNAc
Method in brief: as §1

[9] = target: GlcNAc(b1-2)Gal(b1-3)GalNAc
Method in brief: as §1

[10] = target: GlcNAc(b1-2)Man(a1-3)[GlcNAc(b1-2)Man(a1-6)]Man(b1-4)GlcNAc(b1-4)GlcNAc
Method in brief: as §1

GlcNAc(b1-3)Gal = target: GlcNAc(b1-3)Gal
Method in brief: as §1

[11] = target: GlcNAc(b1-3)Gal(b1-3)GalNAc
Method in brief: as §1

GlcNAc(b1-3)Gal(b1-4)Glc = target: GlcNAc(b1-3)Gal(b1-4)Glc
Method in brief: as §1

[12] = target: GlcNAc(b1-3)Gal(b1-4)GlcNAc
Method in brief: as §1

[13] = target: GlcNAc(b1-3)Gal(b1-4)GlcNAc(b1-3)Gal(b1-4)GlcNAc
Method in brief: as §1

GlcNAc(b1-3)GalNAc = target: GlcNAc(b1-3)GalNAc
Method in brief: as §1

[14] = target: GlcNAc(b1-3)[GlcNAc(b1-6)]Gal(b1-4)GlcNAc
Method in brief: as §1

[15] = target: GlcNAc(b1-3)[GlcNAc(b1-6)]GalNAc
Method in brief: as §1

[16] = target: GlcNAc(b1-3)[GlcNAc(b1-6)]GlcNAc(b1-4)GlcNAc
Method in brief: as §1

[17] = target: GlcNAc(b1-4)Gal(b1-4)GlcNAc
Method in brief: as §1

[18] = target: GlcNAc(b1-4)GlcNAc(b1-4)GlcNAc
Method in brief: as §1

[19] = target: GlcNAc(b1-4)GlcNAc(b1-4)GlcNAc(b1-4)GlcNAc(b1-4)GlcNAc
Method in brief: as §1

[20] = target: GlcNAc(b1-4)GlcNAc(b1-4)GlcNAc(b1-4)GlcNAc(b1-4)GlcNAc(b1-4)GlcNAc
Method in brief: as §1

[21] = target: GlcNAc(b1-4)[GlcNAc(b1-6)]GalNAc
Method in brief: as §1

[22] = target: GlcNAc(b1-6)Gal(b1-4)GlcNAc
Method in brief: as §1

GlcNAc(b1-6)GalNAc = target: GlcNAc(b1-6)GalNAc
Method in brief: as §1

Kdn(a2-3)Gal(b1-3)GlcNAc = target: Kdn(a2-3)Gal(b1-3)GlcNAc
Method in brief: as §1

Kdn(a2-3)Gal(b1-4)GlcNAc = target: Kdn(a2-3)Gal(b1-4)GlcNAc
Method in brief: as §1

[23] = target: Man(a1-2)Man(a1-2)Man(a1-3)Man
Method in brief: as §1

[24] = target: Man(a1-2)Man(a1-2)Man(a1-6)[Man(a1-3)]Man
Method in brief: as §1

Man(a1-2)Man(a1-3)Man = target: Man(a1-2)Man(a1-3)Man
Method in brief: as §1

[25] = target: Man(a1-2)Man(a1-3)[Man(a1-2)Man(a1-6)]Man
Method in brief: as §1

[26] = target: Man(a1-2)Man(a1-3)[Man(a1-2)Man(a1-6)]Man(a1-6)[Man(a1-2)Man(a1-2)Man(a1-3)]Man(b1-4)GlcNAc(b1-4)GlcNAc
Method in brief: as §1

[27] = target: Man(a1-2)Man(a1-3)[Man(a1-6)]Man(a1-6)[Man(a1-2)Man(a1-3)]Man(b1-4)GlcNAc(b1-4)GlcNAc
Method in brief: as §1

[28] = target: Man(a1-2)Man(a1-6)[Man(a1-3)]Man(a1-6)[Man(a1-2)Man(a1-2)Man(a1-3)]Man(b1-4)GlcNAc(b1-4)GlcNAc
Method in brief: as §1

Man(a1-3)[Man(a1-6)]Man = target: Man(a1-3)[Man(a1-6)]Man
Method in brief: as §1

[29] = target: Man(a1-3)[Man(a1-6)]Man(a1-6)[Man(a1-2)Man(a1-3)]Man(b1-4)GlcNAc(b1-4)GlcNAc
Method in brief: as §1

[30] = target: Man(a1-3)[Man(a1-6)]Man(a1-6)[Man(a1-3)]Man(b1-4)GlcNAc(b1-4)GlcNAc
Method in brief: as §1

B1: CTMLA2 (Anopheles gambiae), Q7Q7F8 (protein)
chain: MNLMITILIAVITVVRGDLSVPKTVDDILQQNPCLCPCKPFEEKEYFIPISRTSDWFGAVAYCHSVGMELAEVLNEDEARAMGEVIAEEESDSDDEFYWIGANDLGVQGTYRWALAGRPVLYSQWAAGEPNHARGENGQQPAERCVAVAMDKYEWNDFQCTQQKPFICQQFRKH
[1]
  glycan array binding signal (z-score): 0.098
[2]
  glycan array binding signal (z-score): -0.049
[3]
  glycan array binding signal (z-score): -0.535
Gal3S(b1-3)GalNAc
  glycan array binding signal (z-score): 0.422
Gal3S(b1-3)GlcNAc
  glycan array binding signal (z-score): 1.6
[4]
  glycan array binding signal (z-score): 0.17
Gal3S(b1-4)Glc
  glycan array binding signal (z-score): -0.063
Gal3S(b1-4)Glc6S
  glycan array binding signal (z-score): 0.323
Gal3S(b1-4)GlcNAc
  glycan array binding signal (z-score): 0.224
Gal3S(b1-4)GlcNAc6S
  glycan array binding signal (z-score): 0.573
[5]
  glycan array binding signal (z-score): -0.624
Gal3S6S(b1-4)GlcNAc
  glycan array binding signal (z-score): 1.36
Gal3S6S(b1-4)GlcNAc6S
  glycan array binding signal (z-score): 0.304
Gal4S(b1-4)GlcNAc
  glycan array binding signal (z-score): 0.87
Gal4S6S(b1-4)GlcNAc
  glycan array binding signal (z-score): 0.011
Gal6S(b1-4)Glc
  glycan array binding signal (z-score): 0.404
Gal6S(b1-4)Glc6S
  glycan array binding signal (z-score): 0.458
Gal6S(b1-4)GlcNAc
  glycan array binding signal (z-score): 0.772
GalNAc(a1-3)Gal
  glycan array binding signal (z-score): 0.19
GalNAc(a1-3)GalNAc
  glycan array binding signal (z-score): -0.298
[6]
  glycan array binding signal (z-score): -0.109
GalNAc(b1-3)GalNAc
  glycan array binding signal (z-score): -0.135
GalNAc(b1-4)GlcNAc
  glycan array binding signal (z-score): -0.062
Glc(a1-4)Glc
  glycan array binding signal (z-score): -0.393
Glc(a1-6)Glc(a1-6)Glc
  glycan array binding signal (z-score): -0.271
Glc(b1-4)Glc
  glycan array binding signal (z-score): 0.094
Glc(b1-6)Glc
  glycan array binding signal (z-score): -0.2
GlcA(b1-3)Gal
  glycan array binding signal (z-score): 0.087
GlcA(b1-6)Gal
  glycan array binding signal (z-score): 0.777
[7]
  glycan array binding signal (z-score): -0.13
[8]
  glycan array binding signal (z-score): -0.363
[9]
  glycan array binding signal (z-score): 0.567
[10]
  glycan array binding signal (z-score): -0.189
GlcNAc(b1-3)Gal
  glycan array binding signal (z-score): -0.283
[11]
  glycan array binding signal (z-score): 1.18
GlcNAc(b1-3)Gal(b1-4)Glc
  glycan array binding signal (z-score): -0.264
[12]
  glycan array binding signal (z-score): -0.188
[13]
  glycan array binding signal (z-score): -0.389
GlcNAc(b1-3)GalNAc
  glycan array binding signal (z-score): -0.569
[14]
  glycan array binding signal (z-score): -0.469
[15]
  glycan array binding signal (z-score): -0.515
[16]
  glycan array binding signal (z-score): 0.928
[17]
  glycan array binding signal (z-score): -0.36
[18]
  glycan array binding signal (z-score): -0.218
[19]
  glycan array binding signal (z-score): -0.422
[20]
  glycan array binding signal (z-score): -0.832
[21]
  glycan array binding signal (z-score): -0.15
[22]
  glycan array binding signal (z-score): -0.257
GlcNAc(b1-6)GalNAc
  glycan array binding signal (z-score): -0.407
Kdn(a2-3)Gal(b1-3)GlcNAc
  glycan array binding signal (z-score): -0.664
Kdn(a2-3)Gal(b1-4)GlcNAc
  glycan array binding signal (z-score): 0.054
[23]
  glycan array binding signal (z-score): -0.237
[24]
  glycan array binding signal (z-score): -0.252
Man(a1-2)Man(a1-3)Man
  glycan array binding signal (z-score): -0.273
[25]
  glycan array binding signal (z-score): -0.134
[26]
  glycan array binding signal (z-score): 0.101
[27]
  glycan array binding signal (z-score): -0.309
[28]
  glycan array binding signal (z-score): -0.52
Man(a1-3)[Man(a1-6)]Man
  glycan array binding signal (z-score): -0.271
[29]
  glycan array binding signal (z-score): -0.058
[30]
  glycan array binding signal (z-score): 0.122
